Experimental data reported in patent US9289506B2, “Surface binding of nanoparticle based drug delivery to tissue” (Massachusetts Institute of Technology, priority 2013, dated 2016).
Some of these results come from one statement about several compounds together.

Assay: One-way diffusion of solutes into cartilage half disks in transport chamber, confocal microscopy imaging
Conditions: normal cartilage

## fluorescein isothiocyanate [Fluorescein Isothiocyanate (FITC), reference compound]
  time to penetrate the full thickness (1 mm) of the cartilage explant: ≤ 24 h
